# Laboratory results taken from PubChem BioAssay AID588497 (NMMLSC, 2011).
# Hit rate of the full screen: of about 360,000 compounds, about 780 (0.22%) were called active. Inconclusive results, whose numbers are uncertain, are shown with a selection of clear calls. Rule as the data show it: active = inhibition above about 35% (passing the limit was not always enough); inconclusive = no clear call, values can overlap the other calls.
# System: Botulinum neurotoxin type F light chain protease (Clostridium botulinum)
# Experiment: BoNT/F light chain protease inhibitors, primary screen, biochemical, flow cytometry, MLPCN library (AID 588497); also: plate controls were buffer without enzyme for full effect and enzyme alone for no effect
# Details: Multiplex microsphere protease cleavage assay, at 10 µM, stronger effect = higher value
row,SMILES,inhibition
1,O=C(CN1C2CCCC1CC(NC(=O)c1ccccc1)C2)Nc1ccccc1 (centres undefined),inactive: 1.4%
2,COc1ccc(-c2nn(CCC#N)cc2C(=O)Nc2ccccc2)cc1OC,inconclusive: -41.4%
3,COc1ccc(C(=O)Nc2c(O)ccc3ccccc23)cc1,inconclusive: 0.2%
4,COc1ccc(NS(=O)(=O)c2ccc(N3CC(O)=C(c4ccccc4)C3=N)cc2)cc1,inactive: -2.9%
5,COc1ccc(/C=C2\CCCC(C(=O)C(F)(F)F)=C2O)cc1,inactive: -9.6%
6,Cc1ccc(NC(=O)CN2CCC(NC(=O)c3cccc(F)c3)CC2)cc1C,inconclusive: -24.6%
7,CCOC(=O)c1ccc(NC(=S)NCc2ccccc2)cc1,inconclusive: 4.6%
8,O=S(=O)([N-]c1nc2ccccc2nc1-n1cc[n+](Cc2ccccc2)c1)c1ccccc1,inconclusive: 8.7%
9,Cc1cc(C)cc(N(CCC#N)C(=O)COC(=O)C2=COCCO2)c1,inactive: -2.1%
10,FC(F)(F)C1=Nc2cccc3cccc(c23)N1,inactive: 3.3%
11,Cc1ccc(C2=CC(c3ccccc3)n3ncnc3N2)c(C)c1 (centres undefined),inactive: -7.2%
12,COc1ccccc1OCCSc1nc2ccccc2n1CCC(=O)O,inconclusive: -19.4%
13,CCCCNc1c2c3c(cccc3n(C)c1=O)C(=O)c1ccccc1-2,active: 49.8%
14,COc1ccc(N(CC(=O)NCCc2ccccc2)C(=O)CCC(=O)Nc2nccs2)c(OC)c1,inactive: 21.9%
15,Cc1nc2ccc(NC(=O)CS(=O)(=O)c3ccc(F)cc3)cc2s1,inconclusive: -44.1%
16,CCN(C(=O)COC(=O)Cn1c(=O)oc2ccccc21)c1c(N)n(Cc2ccccc2)c(=O)[nH]c1=O,inactive: 6.7%
17,O=C(CNC(=O)c1ccco1)Nc1ccc(S(=O)(=O)N2CCCC2)cc1,inactive: -8.7%
18,C=CCc1cc(Cl)ccc1OCCCn1ccnc1,inconclusive: 4.5%
19,COC(=O)c1cc2c(s1)-c1cc(F)ccc1OC2,inconclusive: -35%
20,O=C(Nc1ccncc1)c1ccc(NS(=O)(=O)c2ccc3[nH]c(=O)[nH]c3c2)cc1,inactive: 1%
21,c1ccc(-c2nnc(CN3CCCc4ccccc43)o2)cc1,inconclusive: -143%
22,Cc1cc(=O)n2nc(N3CCC(C(=O)NCC(C)c4ccccc4)CC3)sc2n1 (centres undefined),inactive: 0.1%
23,O=C(CN1CCN(c2ccccc2O)CC1)Nc1ccc(S(=O)(=O)N2CCCCCC2)cc1,inconclusive: 3.7%
24,COc1ccc2[nH]c(C(=O)Nc3ccc(F)cc3Br)cc2c1,inconclusive: 6.8%

# Reformatted: 3 of the compounds above.
row | SMILES | inhibition
5 | COc1ccc(/C=C2\CCCC(C(=O)C(F)(F)F)=C2O)cc1 | inactive: -9.6%
6 | Cc1ccc(NC(=O)CN2CCC(NC(=O)c3cccc(F)c3)CC2)cc1C | inconclusive: -24.6%
7 | CCOC(=O)c1ccc(NC(=S)NCc2ccccc2)cc1 | inconclusive: 4.6%

# Additional compounds.

row,SMILES,inhibition
1,COC(=O)c1ccc(NC2CC(=O)N(c3ccccc3C)C2=O)cc1 (centres undefined),inconclusive: -496%
2,COc1ccc(NC(=O)c2sc3nc(-c4cccnc4)ccc3c2N)cc1OC,inconclusive: -15.7%
3,N#Cc1c(/N=C/c2ccc(-c3ccccc3C(=O)O)o2)sc2c1CCCC2,inconclusive: -13.5%
4,CCN(CCO)C(=O)c1ccc2nc(Cc3cccc(Cl)c3)oc2c1,inconclusive: 9.8%
5,CCN(Cc1ccccc1)Cc1ccc(OCc2ccccc2)c(OC)c1,inconclusive: -21%
6,CCOCCCNC(=O)C(NC(=O)c1ccccc1O)c1ccc(C)cc1 (centres undefined),inactive: -4.4%
7,CCCn1nnnc1SCC(=O)NCc1ccc(OC)cc1,inconclusive: -4.7%
8,Cc1ccc(OCCNC(=O)c2ccc(C)cc2)cc1,inactive: -2.8%
9,O=c1c2ccc(Cl)cc2[nH]c(=S)n1-c1cccnc1,inactive: -4.6%
10,O=C(O)c1c(C(=O)O)c(-c2ccc(Cl)c(Cl)c2)n2c1CSC2,inactive: -13.7%
11,Cc1cc(C)n2nc(-c3cnn(C)c3C(F)(F)F)cc2n1,inactive: 2.7%
12,O=C(O)c1cc(NN=C2CCN(Cc3ccccc3)CC2)ccc1Cl,active: 41.8%
13,O=C(CN1C(=O)c2ccccc2C1=O)NCc1ccc(N2CCOCC2)cc1,inconclusive: 20.1%
14,O=C(O)Cc1cccc(=O)c(O)c1C(=O)O,inactive: 4.6%
15,CN1CCCN(S(=O)(=O)c2ccccc2)CC1,inconclusive: 17%
16,COc1ccc(/C=C/C(=O)Nc2cccnc2Cl)cc1,inactive: 9%
17,COc1ccc(OC)c(/C(C)=N\NC(=O)c2cc3cc(Cl)ccc3n2C)c1,inconclusive: 1.6%
18,C=CCn1c(O)c(/C(C)=N/N2CCN(C)CC2)c(=O)[nH]c1=O,inconclusive: -17.2%
19,CCCCN(C(=O)CSCC(=O)Nc1ccc(OC)cc1)c1c(N)n(CCC)c(=O)[nH]c1=O,inconclusive: -4.7%
20,O=C(Nc1ncccn1)c1cccc(F)c1,inconclusive: -0.1%
21,COc1ccccc1NC(=O)NC(=O)c1ccccc1,inconclusive: 18.6%
22,CSCCC(NC(N)=O)C(=O)N(C)CC(=O)Nc1cc(C)ccc1C (centres undefined),inconclusive: 18.3%
23,CN1CCC(=C(c2ccc(Cl)cc2)c2ccccn2)CC1,inconclusive: 2.6%
24,COc1cccc(/C=N/Nc2ccnc(=O)[nH]2)c1O,inactive: -18.6%

row,SMILES,inhibition
1,O=C(CN1CCN(Cc2ccc(Cl)cc2)CC1)N/N=C/c1ccccc1F,inconclusive: 41.4%
2,CCOC(=O)c1[nH]c2ccc(OC)cc2c1NC(=O)CCN1CCSCC1,inactive: 0.1%
3,CCOC(=O)c1cc(-c2csc(COc3ccccc3)n2)on1,inconclusive: -239%
4,CN(CC(=O)Nc1cccc(F)c1)C(=O)CN1C(=O)C2CC=CCC2C1=O (centres undefined),inconclusive: 5.9%
5,CCOC(=O)Cc1csc(NC(=O)CC(C)(C)C)n1,inconclusive: 13.4%
6,Cc1cc(=O)n2ccsc2n1,inactive: -6.8%
7,Cc1cc2nc(C(C)(C)C)c(Cc3ccccc3C(F)(F)F)n2c(C)c1Br,inactive: 9.6%
8,NS(=O)(=O)c1ccc(CCNC2CC(=O)N(CCc3ccccc3)C2=O)cc1 (centres undefined),active: 158%
9,CC(C)c1ccc(C2CC(=O)N3CN(Cc4ccco4)CSC3=C2C#N)cc1 (centres undefined),inconclusive: 9.9%
10,CC(C)OP(=O)(c1ccc(N(C)C)cc1)C(Nc1ccccc1)c1ccccc1 (centres undefined),inconclusive: -88.5%
11,CCN(CC)c1ccc(/C=C2/C(=O)NC(=O)N(CC3CCCO3)C2=O)cc1 (centres undefined),inconclusive: -39%
12,CCOc1ccccc1C=NNc1ccc([N+](=O)[O-])cn1,inactive: -4.4%
13,COc1ccc2nc(SCC(=O)NCc3ccc(S(N)(=O)=O)cc3)[nH]c2c1,inconclusive: 15.3%
14,Cn1c(SCC(=O)Nc2ccccc2)nnc1-c1ccc2nonc2c1,inconclusive: -73.9%
15,Cc1cccc(NC(=S)N2CCN(c3ccccc3F)CC2)c1C,inconclusive: 18.9%
16,COc1cc(CN2CCCN(C)CC2)cc([N+](=O)[O-])c1O,inconclusive: -1.5%
17,OC(C#CCN1CCCCC1)(c1ccccc1)c1ccccc1,inconclusive: -18.5%
18,Cc1cc(C(=O)Nc2ccc(Nc3ccccc3)cc2)ccc1[N+](=O)[O-],inconclusive: -6.2%
19,O=c1c2ccccc2nc(-c2ccccc2)n1-c1ccccc1,inconclusive: 2.4%
20,COc1cccc(-n2nnnc2SCC(=O)Nc2ccccc2OC)c1,inconclusive: 9.4%
21,O=C(Nc1ccc2ccccc2n1)Nc1cccs1,inconclusive: -7.1%
22,COC(=O)c1ccc(C(=O)OC)c(NC(=S)N2CCN(C(=O)C3CCCO3)CC2)c1 (centres undefined),inconclusive: -42.6%
23,COc1ccc(CC(=O)NCC2CCCN(Cc3cccc(C(F)(F)F)c3)C2)cc1 (centres undefined),inconclusive: -19.1%
24,CCOC(=O)C1CCCCN1Cc1ccc(-c2ccccc2)cc1 (centres undefined),inconclusive: 2.5%

row,SMILES,inhibition
1,OC1=C(O)c2nc3cc(F)ccc3nc21,inconclusive: -43.6%
2,COc1ccccc1N1CCN(Cc2ccc(C(=O)O)cc2)CC1,inconclusive: 1.2%
3,Cn1cnc2c(oc3ccccc32)c1=O,inconclusive: 19.3%
4,Cc1nccn1CC(=O)N/N=C/c1cccs1,inconclusive: -40.2%
5,O=C(NC1CCCCNC1=O)c1ccccc1 (centres undefined),inconclusive: -48.1%
6,CC(=O)Nc1cccc(-n2nnc(SCC(=O)Nc3ccccc3)n2)c1,inconclusive: 72.9%
7,CCC(=O)Nc1nc(NCc2ccccc2OC)n(-c2ccccc2)n1,inconclusive: -28%
8,O=C(c1ccco1)N1CCCC(c2nc3c(nnn3Cc3ccc(F)cc3)c(=O)[nH]2)C1 (centres undefined),inactive: -5.5%
9,CCc1cccc2sc(N3CCN(C(=O)c4ccc([N+](=O)[O-])o4)CC3)nc12,inactive: 6.8%
10,CCCn1nnc(NC(=O)c2ccc3c(c2)OCO3)n1,inconclusive: 24.5%
11,COc1ccc(C2CC(C(F)(F)F)n3nc(CO)c(Cl)c3N2)cc1OC (centres undefined),inactive: -2.5%
12,O=C(CCC(F)(F)F)N1CCCC(CO)(CCc2ccccc2)C1 (centres undefined),inconclusive: -9.2%
13,CN(CC1CCN(CCc2cccc(C(F)(F)F)c2)CC1)C(=O)c1ccccc1,inconclusive: 7%
14,CCOc1ccc(OCCC(=O)N(CC)CC(=O)Nc2ccccc2OC)cc1,inconclusive: -7.5%
15,COc1ccc2nc(NC(=O)c3ccccc3F)sc2c1,inconclusive: 29.7%
16,COc1ccc(CCNC(=O)c2cccs2)cc1,inconclusive: 26.3%
17,CCS(=O)(=O)N1CCC(C(=O)Oc2ccccc2Cl)CC1,inconclusive: 39%
18,CCCn1c(=O)c(C(=O)NCc2ccccc2OC)c(O)c2ccccc21,inconclusive: -25.4%
19,O=C(Oc1oc(-c2ccco2)nc1C=Nc1ccc(Cl)cc1)c1ccco1,inconclusive: -20.1%
20,CN(C)S(=O)(=O)c1ccc(NC(=O)CN2CCN(C(c3ccccc3)c3ccccc3)CC2)cc1,inconclusive: -11.5%
21,COc1ccc(CCNC(=O)CCSCc2ccccc2F)cc1OC,active: 47.8%
22,COc1ccc(CCNC(=O)c2ccccc2)cc1,inconclusive: -1.5%
